Values from PubChem BioAssay AID1259308 (NCATS, 2017).
The deposit covers about 59,000 reagents; this is a part drawn at random. Of all reagents, about 1,510 (2.6%) were called active. 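Calls use total luciferase alone and ignore viability, so some active siRNAs may act by altering cell number.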 Reagents against one gene are numbered here. Reagent sequences are not shown.

Purpose: 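Candidate targets for better recombinant protein yield in mammalian cells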 (primary screen)
System: human HEK293 embryonic kidney cells stably expressing firefly luciferase (HEK-CMV-Luc2-Hygro)
Reagents: single siRNA against human genes, 0.8 pmol siRNA per well
Duration: 72 h
Detection: 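Luciferase light (ONE-Glo) measured on one replicate plate set and viability (CellTiter-Glo) on the other, scaled to a negative control siRNA, with robust z-scores and luciferase per cell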
Scale: total luciferase, z-score and total luciferase, % of control: higher = more reporter protein produced; luciferase per cell, z-score: higher = more reporter output per viable cell; viable cells, % of control: higher = more viable cells
Hit rule: 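An siRNA counts as active if its total luciferase robust z-score exceeds 3; genes with two or more such siRNAs out of three were retested with fresh siRNAs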
Calls: active = raised luciferase; inactive = no rise

| target | reagent | total luciferase, z-score | total luciferase, % of control | luciferase per cell, z-score | viable cells, % of control | call |
| --- | --- | --- | --- | --- | --- | --- |
| IREB2 | 1 | -0.0432 | 81 | 0.0827 | 88.6 | inactive |
| IREB2 | 2 | -1.09 | 60.1 | -0.942 | 86.1 | inactive |
| IREB2 | 3 | -0.0227 | 81.4 | 0.329 | 83.4 | inactive |
| RRP8 | 1 | 0.238 | 86.6 | 0.526 | 84.3 | inactive |
| RRP8 | 2 | -0.343 | 75.1 | -0.61 | 98.5 | inactive |
| RRP8 | 3 | 0.0257 | 82.4 | 0.709 | 76.4 | inactive |
| RPLP1P7 | 1 | -1.34 | 55.2 | -0.605 | 72.4 | inactive |
| RPLP1P7 | 2 | -1.33 | 55.5 | 1.2 | 45.3 | inactive |
| RPLP1P7 | 3 | -0.966 | 62.7 | -0.889 | 88.5 | inactive |
| TSPAN33 | 1 | 1.11 | 104 | 1.53 | 77.7 | inactive |
| TSPAN33 | 2 | -1.4 | 54.1 | -0.946 | 77.6 | inactive |
| TSPAN33 | 3 | -1.78 | 46.4 | -1.9 | 85.6 | inactive |
| CWC27 | 1 | -0.147 | 79 | -0.0429 | 89.2 | inactive |
| CWC27 | 2 | -1.21 | 57.9 | -1.32 | 91.6 | inactive |
| CWC27 | 3 | 2.07 | 123 | 1.81 | 85.4 | inactive |
| GPAM | 1 | -0.207 | 77.8 | 0.355 | 79.2 | inactive |
| GPAM | 2 | 2.68 | 135 | 1.35 | 106 | inactive |
| GPAM | 3 | -0.759 | 66.8 | -0.383 | 82.6 | inactive |
| NAA11 | 1 | 0.211 | 86.1 | -0.0466 | 97.4 | inactive |
| NAA11 | 2 | 0.584 | 93.5 | 1.32 | 73.8 | inactive |
| NAA11 | 3 | 0.446 | 90.8 | 0.72 | 83.9 | inactive |
| POLR2F | 1 | -1.3 | 56 | -0.427 | 70.1 | inactive |
| POLR2F | 2 | -3.34 | 15.4 | -4.68 | 58.9 | inactive |
| POLR2F | 3 | -2.39 | 34.3 | -1.97 | 64.3 | inactive |

Targets above whose gene name begins with P or p:
| target | reagent | total luciferase, z-score | total luciferase, % of control | luciferase per cell, z-score | viable cells, % of control | call |
| --- | --- | --- | --- | --- | --- | --- |
| POLR2F | 1 | -1.3 | 56 | -0.427 | 70.1 | inactive |
| POLR2F | 2 | -3.34 | 15.4 | -4.68 | 58.9 | inactive |
| POLR2F | 3 | -2.39 | 34.3 | -1.97 | 64.3 | inactive |
